This is one part of the list.
Columns and labels:
Experiment in all cases: log2 fold change, soluble protein after heating vs DMSO (PISA); higher = thermal stabilisation; K562 cells, 10 uM, 30 min; active = over 0.2 and 3.5 SD of the protein, either way, in both replicates (recomputed)
bafetinib = compound: Cc1ccc(NC(=O)c2ccc(CN3CC[C@H](N(C)C)C3)c(C(F)(F)F)c2)cc1Nc1nccc(-c2cncnc2)n1 [bafetinib]
Method in brief: (§1)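 K562 cells (2×10^6 cells/mL) were treated with 10 μM compound for 30 min, and aliquots were heated for 3 min over 48°C-58°C. Pooled aliquots were extracted in PBS with 0.5% NP-40 at 4°C, and the supernatant after 21,000xg for 90 min was measured by TMTpro 16plex LC-MS/MS with channel sums equalised. Reported thermal stability, relative to control samples and from duplicates, is a log2 fold change.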

Sequences of proteins named here, by UniProt entry; tags and fusion partners are left off. A change or cut given only in a name is not applied to a line headed by its entry.
UniProt Q14BN4: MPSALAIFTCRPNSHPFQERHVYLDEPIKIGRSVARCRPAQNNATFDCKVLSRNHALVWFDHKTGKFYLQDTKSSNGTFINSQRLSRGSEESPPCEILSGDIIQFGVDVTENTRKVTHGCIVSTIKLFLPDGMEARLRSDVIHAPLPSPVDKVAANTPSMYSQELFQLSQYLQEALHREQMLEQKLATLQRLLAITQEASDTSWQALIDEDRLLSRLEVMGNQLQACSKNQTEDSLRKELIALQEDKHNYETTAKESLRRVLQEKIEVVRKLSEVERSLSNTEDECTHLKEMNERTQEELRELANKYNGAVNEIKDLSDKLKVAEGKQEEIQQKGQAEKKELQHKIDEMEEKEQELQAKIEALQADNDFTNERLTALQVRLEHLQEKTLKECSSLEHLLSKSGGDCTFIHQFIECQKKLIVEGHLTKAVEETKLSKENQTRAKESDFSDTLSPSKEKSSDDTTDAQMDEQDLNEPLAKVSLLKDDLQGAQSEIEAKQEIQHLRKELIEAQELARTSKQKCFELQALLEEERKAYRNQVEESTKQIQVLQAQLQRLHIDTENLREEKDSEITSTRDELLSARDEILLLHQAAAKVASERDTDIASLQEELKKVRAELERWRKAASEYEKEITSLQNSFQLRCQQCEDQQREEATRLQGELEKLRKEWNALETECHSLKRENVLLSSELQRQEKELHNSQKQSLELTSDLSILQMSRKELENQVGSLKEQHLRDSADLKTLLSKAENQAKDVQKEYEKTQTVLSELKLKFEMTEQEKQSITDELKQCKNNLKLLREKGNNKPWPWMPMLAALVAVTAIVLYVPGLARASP
UniProt Q96CW6: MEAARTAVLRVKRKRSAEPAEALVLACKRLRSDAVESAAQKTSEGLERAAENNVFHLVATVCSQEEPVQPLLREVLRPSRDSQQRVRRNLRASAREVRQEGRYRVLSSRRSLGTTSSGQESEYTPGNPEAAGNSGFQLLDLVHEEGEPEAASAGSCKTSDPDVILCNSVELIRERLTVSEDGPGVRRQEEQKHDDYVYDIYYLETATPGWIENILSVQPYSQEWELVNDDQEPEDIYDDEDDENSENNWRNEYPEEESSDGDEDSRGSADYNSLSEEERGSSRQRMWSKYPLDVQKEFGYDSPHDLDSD
UniProt Q96EX1: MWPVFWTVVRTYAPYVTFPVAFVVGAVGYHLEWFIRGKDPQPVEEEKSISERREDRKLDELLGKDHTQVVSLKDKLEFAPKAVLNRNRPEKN
UniProt P62308, whole entry, looked up: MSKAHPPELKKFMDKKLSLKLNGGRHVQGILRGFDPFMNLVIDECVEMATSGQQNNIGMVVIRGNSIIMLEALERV
UniProt Q8N5G0: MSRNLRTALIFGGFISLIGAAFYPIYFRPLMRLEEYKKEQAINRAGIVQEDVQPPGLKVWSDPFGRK
UniProt Q02447: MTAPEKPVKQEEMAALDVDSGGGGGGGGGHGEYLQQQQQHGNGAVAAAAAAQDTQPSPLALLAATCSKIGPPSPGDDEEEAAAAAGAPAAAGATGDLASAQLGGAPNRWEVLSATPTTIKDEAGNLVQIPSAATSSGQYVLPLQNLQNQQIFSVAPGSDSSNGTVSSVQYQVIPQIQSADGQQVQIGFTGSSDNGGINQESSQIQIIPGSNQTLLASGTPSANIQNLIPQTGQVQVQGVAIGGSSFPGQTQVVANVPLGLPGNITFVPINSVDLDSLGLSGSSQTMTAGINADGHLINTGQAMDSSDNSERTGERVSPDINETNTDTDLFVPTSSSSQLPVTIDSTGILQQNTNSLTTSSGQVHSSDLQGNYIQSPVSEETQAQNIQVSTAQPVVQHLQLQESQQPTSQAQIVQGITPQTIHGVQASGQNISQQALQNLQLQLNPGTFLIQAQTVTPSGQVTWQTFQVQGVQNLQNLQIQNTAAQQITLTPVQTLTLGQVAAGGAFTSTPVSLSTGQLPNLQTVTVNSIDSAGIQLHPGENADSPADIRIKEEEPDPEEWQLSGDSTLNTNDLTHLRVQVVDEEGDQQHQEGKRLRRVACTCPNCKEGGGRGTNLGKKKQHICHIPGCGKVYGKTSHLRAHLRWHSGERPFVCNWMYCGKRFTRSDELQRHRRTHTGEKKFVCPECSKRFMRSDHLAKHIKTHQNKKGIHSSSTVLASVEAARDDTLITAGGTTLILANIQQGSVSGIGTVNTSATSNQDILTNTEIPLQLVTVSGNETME
UniProt Q9Y5X3: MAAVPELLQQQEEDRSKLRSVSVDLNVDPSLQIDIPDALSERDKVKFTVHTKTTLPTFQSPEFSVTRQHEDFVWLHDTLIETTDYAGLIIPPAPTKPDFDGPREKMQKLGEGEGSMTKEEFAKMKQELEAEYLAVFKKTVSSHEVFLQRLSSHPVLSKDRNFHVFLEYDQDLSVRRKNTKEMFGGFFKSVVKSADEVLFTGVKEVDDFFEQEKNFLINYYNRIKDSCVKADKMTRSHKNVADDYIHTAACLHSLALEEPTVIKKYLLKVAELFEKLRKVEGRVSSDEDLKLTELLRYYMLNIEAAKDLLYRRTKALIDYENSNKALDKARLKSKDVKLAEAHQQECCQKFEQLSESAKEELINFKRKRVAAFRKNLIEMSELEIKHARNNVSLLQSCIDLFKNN
UniProt O14745: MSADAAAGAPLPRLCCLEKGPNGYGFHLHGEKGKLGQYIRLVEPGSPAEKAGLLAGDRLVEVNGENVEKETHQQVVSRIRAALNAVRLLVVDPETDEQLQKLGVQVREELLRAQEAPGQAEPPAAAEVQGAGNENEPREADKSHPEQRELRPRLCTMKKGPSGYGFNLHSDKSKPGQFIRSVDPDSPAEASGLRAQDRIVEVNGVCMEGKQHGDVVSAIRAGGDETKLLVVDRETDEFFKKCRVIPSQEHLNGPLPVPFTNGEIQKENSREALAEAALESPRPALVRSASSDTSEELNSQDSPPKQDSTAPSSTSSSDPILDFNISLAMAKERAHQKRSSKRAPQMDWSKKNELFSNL
UniProt Q9NRS6: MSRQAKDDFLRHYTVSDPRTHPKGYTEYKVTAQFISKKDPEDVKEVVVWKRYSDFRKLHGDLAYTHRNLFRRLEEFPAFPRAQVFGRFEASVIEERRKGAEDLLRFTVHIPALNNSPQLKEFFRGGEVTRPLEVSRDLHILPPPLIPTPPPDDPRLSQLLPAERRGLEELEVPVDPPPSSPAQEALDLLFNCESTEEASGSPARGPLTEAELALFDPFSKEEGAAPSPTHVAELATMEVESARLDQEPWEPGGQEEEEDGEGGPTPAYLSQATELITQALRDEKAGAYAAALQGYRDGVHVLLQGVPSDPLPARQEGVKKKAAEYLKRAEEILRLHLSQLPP
UniProt P62316, whole entry, looked up: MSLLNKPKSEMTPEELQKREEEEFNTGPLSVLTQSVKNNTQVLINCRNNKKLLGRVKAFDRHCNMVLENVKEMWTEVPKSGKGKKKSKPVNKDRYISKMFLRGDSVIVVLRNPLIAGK
UniProt Q9H7B4: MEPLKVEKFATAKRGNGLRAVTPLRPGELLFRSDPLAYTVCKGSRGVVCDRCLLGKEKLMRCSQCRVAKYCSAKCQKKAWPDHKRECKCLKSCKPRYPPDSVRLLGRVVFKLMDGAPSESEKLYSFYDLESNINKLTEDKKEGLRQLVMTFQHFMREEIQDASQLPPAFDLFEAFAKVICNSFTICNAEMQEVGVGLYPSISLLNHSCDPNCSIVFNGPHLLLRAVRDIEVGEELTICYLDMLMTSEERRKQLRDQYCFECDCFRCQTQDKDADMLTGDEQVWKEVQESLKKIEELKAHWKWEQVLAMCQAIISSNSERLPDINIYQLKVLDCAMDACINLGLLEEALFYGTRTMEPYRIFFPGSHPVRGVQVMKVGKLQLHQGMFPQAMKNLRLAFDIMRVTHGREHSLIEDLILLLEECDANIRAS
UniProt Q9UMY4: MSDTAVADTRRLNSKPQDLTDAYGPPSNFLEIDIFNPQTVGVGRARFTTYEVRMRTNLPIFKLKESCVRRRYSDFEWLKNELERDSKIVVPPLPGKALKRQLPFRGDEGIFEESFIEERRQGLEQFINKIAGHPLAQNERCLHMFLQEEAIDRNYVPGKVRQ
UniProt P62318, whole entry, looked up: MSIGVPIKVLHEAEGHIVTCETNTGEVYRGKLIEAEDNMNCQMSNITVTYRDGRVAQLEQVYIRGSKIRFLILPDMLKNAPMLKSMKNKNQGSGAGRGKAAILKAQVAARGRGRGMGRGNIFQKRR
UniProt Q9H4L7: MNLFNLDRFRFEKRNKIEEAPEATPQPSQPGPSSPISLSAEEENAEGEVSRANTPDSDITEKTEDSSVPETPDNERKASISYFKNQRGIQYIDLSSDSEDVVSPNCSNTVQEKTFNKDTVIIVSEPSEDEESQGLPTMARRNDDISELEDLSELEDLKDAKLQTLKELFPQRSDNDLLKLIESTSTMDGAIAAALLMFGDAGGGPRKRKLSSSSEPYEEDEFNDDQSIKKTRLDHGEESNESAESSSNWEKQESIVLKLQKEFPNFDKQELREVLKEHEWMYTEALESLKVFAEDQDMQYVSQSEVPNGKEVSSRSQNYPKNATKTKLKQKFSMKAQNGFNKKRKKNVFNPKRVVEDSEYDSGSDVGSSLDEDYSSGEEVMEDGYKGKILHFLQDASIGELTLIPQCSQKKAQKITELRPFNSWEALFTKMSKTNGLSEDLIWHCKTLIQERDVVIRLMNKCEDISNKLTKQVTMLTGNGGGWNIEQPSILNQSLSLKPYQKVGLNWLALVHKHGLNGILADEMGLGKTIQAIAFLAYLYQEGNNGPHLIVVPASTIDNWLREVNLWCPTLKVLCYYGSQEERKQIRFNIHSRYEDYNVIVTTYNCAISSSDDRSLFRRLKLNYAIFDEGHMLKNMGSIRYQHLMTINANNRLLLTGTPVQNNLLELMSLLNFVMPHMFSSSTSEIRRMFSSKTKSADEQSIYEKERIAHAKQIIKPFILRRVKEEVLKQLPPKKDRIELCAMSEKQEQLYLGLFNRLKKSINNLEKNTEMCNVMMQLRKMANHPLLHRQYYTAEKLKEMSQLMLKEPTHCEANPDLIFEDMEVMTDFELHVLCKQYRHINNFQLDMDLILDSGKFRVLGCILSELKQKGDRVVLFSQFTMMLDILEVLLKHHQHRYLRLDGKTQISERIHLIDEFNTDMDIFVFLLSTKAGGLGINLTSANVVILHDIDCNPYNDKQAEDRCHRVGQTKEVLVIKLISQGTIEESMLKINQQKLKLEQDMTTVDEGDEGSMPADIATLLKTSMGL
UniProt Q13573: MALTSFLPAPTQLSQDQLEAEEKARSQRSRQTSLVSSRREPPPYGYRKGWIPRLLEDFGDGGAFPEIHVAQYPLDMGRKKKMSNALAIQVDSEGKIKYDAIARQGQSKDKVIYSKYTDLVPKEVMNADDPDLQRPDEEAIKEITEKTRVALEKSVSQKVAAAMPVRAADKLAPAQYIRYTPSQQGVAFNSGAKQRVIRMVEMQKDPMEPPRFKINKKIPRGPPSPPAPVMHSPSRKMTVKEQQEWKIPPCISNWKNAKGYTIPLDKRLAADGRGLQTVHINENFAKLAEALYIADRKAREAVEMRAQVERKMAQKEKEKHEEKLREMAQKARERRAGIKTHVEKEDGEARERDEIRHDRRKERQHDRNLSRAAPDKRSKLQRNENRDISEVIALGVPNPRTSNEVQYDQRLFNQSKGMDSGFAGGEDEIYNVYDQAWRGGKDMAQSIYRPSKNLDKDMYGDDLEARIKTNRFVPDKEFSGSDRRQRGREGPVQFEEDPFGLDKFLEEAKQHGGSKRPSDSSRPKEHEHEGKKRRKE

[1] = compound: Cc1cccc(CC(=O)N2CCc3c2ccc(-c2cn(C)c4ncnc(N)c24)c3F)n1
Method in brief: as §1

nilotinib = compound: Cc1cn(-c2cc(NC(=O)c3ccc(C)c(Nc4nccc(-c5cccnc5)n4)c3)cc(C(F)(F)F)c2)cn1 [nilotinib]
Method in brief: as §1

[2] = compound: Cc1nc(Nc2n[nH]c3c2CN(C(=O)N[C@H](CN(C)C)c2ccccc2)C3(C)C)c2sccc2n1
Method in brief: as §1

dasatinib = compound: Cc1nc(Nc2ncc(C(=O)Nc3c(C)cccc3Cl)s2)cc(N2CCN(CCO)CC2)n1 [dasatinib]
Method in brief: as §1

[3] = compound: Cc1ncc(-c2ccnc(Nc3ccc(S(C)(=O)=O)cc3)n2)n1C(C)C
Method in brief: as §1

[4] = compound: Cn1cc(-c2ccc3c(c2)CCN3C(=O)Cc2cccc(C(F)(F)F)c2)c2c(N)ncnc21
Method in brief: as §1

[5] = compound: Cn1cc(-c2ccc3nnc(C(F)(F)c4ccc5ncccc5c4)n3n2)cn1
Method in brief: as §1

tipifarnib = compound: Cn1cncc1[C@@](N)(c1ccc(Cl)cc1)c1ccc2c(c1)c(-c1cccc(Cl)c1)cc(=O)n2C [tipifarnib]
Method in brief: as §1

mubritinib = compound: FC(F)(F)c1ccc(/C=C/c2nc(COc3ccc(CCCCn4ccnn4)cc3)co2)cc1 [mubritinib]
Method in brief: as §1

[6] = compound: NC(=O)Nc1cc(-c2cccc(F)c2)sc1C(=O)N[C@H]1CCCNC1
Method in brief: as §1

[7] = compound: NC(=O)c1cnc(N[C@@H]2CCCC[C@@H]2N)nc1Nc1cccc(-n2nccn2)c1
Method in brief: as §1

[8] = compound: NC1(c2ccc(-c3nc4ccn5c(=O)[nH]nc5c4cc3-c3ccccc3)cc2)CCC1
Method in brief: as §1

[9] = compound: NCC(=O)Nc1ccc(-n2nc(C(F)(F)F)cc2-c2ccc3c(ccc4ccccc43)c2)cc1
Method in brief: as §1

entinostat = compound: Nc1ccccc1NC(=O)c1ccc(CNC(=O)OCc2cccnc2)cc1 [entinostat]
Method in brief: as §1

vorinostat = compound: O=C(CCCCCCC(=O)Nc1ccccc1)NO [vorinostat]
Method in brief: as §1

citarinostat = compound: O=C(CCCCCCNC(=O)c1cnc(N(c2ccccc2)c2ccccc2Cl)nc1)NO [citarinostat]
Method in brief: as §1

silmitasertib = compound: O=C(O)c1ccc2c(c1)nc(Nc1cccc(Cl)c1)c1ccncc12 [silmitasertib]
Method in brief: as §1

[10] = compound: O=C1NC(=O)C(c2cnc3ccccn23)=C1c1cn2c3c(cc(F)cc13)CN(C(=O)N1CCCCC1)CC2
Method in brief: as §1

[11] = compound: c1cc(OCCN2CCCCC2)cc(-c2n[nH]c3ccc(-c4nnc[nH]4)cc23)c1
Method in brief: as §1

Measured: log2 fold change

SLMAP (UniProt Q14BN4)
inactive: bafetinib 0.004 | [1] -0.052 | nilotinib -0.062 | [2] -0.16 | dasatinib 0.007 | [3] 0.006 | [4] -0.116 | [5] 0.09 | tipifarnib 0.005 | mubritinib 0.054 | [6] 0.017 | [7] -0.006 | [8] 0.035 | [9] -0.039 | entinostat 0.088 | vorinostat 0.024 | citarinostat -0.009 | silmitasertib 0.066 | [10] 0.054 | [11] -0.083

SLC7A6OS (UniProt Q96CW6)
inactive: bafetinib -0.062 | [1] 0.15 | nilotinib -0.019 | [2] -0.035 | dasatinib 0.004 | [3] -0.031 | [4] 0.026 | [5] -0.13 | tipifarnib 0.06 | mubritinib 0.058 | [6] -0.023 | [7] -0.085 | [8] -0.079 | [9] 0.042 | entinostat -0.043 | vorinostat 0.056 | citarinostat 0.098 | silmitasertib 0.06 | [10] -0.036 | [11] -0.037

SMIM12 (UniProt Q96EX1)
inactive: bafetinib -0.155 | [1] -0.025 | nilotinib 0.03 | [2] -0.018 | dasatinib -0.012 | [3] -0.004 | [4] 0.162 | [5] 0.077 | tipifarnib 0.024 | mubritinib 0.072 | [6] 0.012 | [7] 0.098 | [8] 0.169 | [9] -0.1 | entinostat 0.057 | vorinostat -0.015 | citarinostat 0.129 | silmitasertib -0.149 | [10] -0.113 | [11] 0.298

SNRPG (UniProt P62308)
inactive: bafetinib -0.019 | [1] -0.086 | nilotinib 0.005 | [2] 0.075 | dasatinib 0.053 | [3] 0.04 | [4] -0.016 | [5] -0.013 | tipifarnib 0.009 | mubritinib 0.004 | [6] 0.043 | [7] -0.034 | [8] 0.069 | [9] 0.049 | entinostat -0.032 | vorinostat -0.071 | citarinostat -0.062 | silmitasertib 0.072 | [10] 0.082 | [11] -0.037

SMIM20 isoform 2 (UniProt Q8N5G0)
inactive: bafetinib -0.011 | [1] -0.011 | nilotinib -0.037 | [2] -0.001 | dasatinib 0.012 | [3] -0.102 | [4] 0.05 | [5] 0.156 | tipifarnib 0.017 | mubritinib 0.009 | [6] -0.056 | [7] -0.032 | [8] 0 | [9] 0.002 | entinostat 0.031 | vorinostat 0.057 | citarinostat -0.004 | silmitasertib -0.01 | [10] -0.154 | [11] -0.049

SP3 (UniProt Q02447)
inactive: bafetinib 0.022 | [1] -0.018 | nilotinib -0.01 | [2] 0.093 | dasatinib 0 | [3] -0.042 | [4] -0.044 | [5] 0.103 | tipifarnib -0.041 | mubritinib -0.045 | [6] 0.15 | [7] -0.011 | [8] -0.033 | [9] 0.025 | entinostat 0.027 | vorinostat -0.026 | citarinostat -0.147 | silmitasertib 0.046 | [10] -0.02 | [11] 0.04

2 neighbouring records out of the list so far:
SMIM12 (UniProt Q96EX1)
inactive: bafetinib -0.155 | [1] -0.025 | nilotinib 0.03 | [2] -0.018 | dasatinib -0.012 | [3] -0.004 | [4] 0.162 | [5] 0.077 | tipifarnib 0.024 | mubritinib 0.072 | [6] 0.012 | [7] 0.098 | [8] 0.169 | [9] -0.1 | entinostat 0.057 | vorinostat -0.015 | citarinostat 0.129 | silmitasertib -0.149 | [10] -0.113 | [11] 0.298

SNRPG (UniProt P62308)
inactive: bafetinib -0.019 | [1] -0.086 | nilotinib 0.005 | [2] 0.075 | dasatinib 0.053 | [3] 0.04 | [4] -0.016 | [5] -0.013 | tipifarnib 0.009 | mubritinib 0.004 | [6] 0.043 | [7] -0.034 | [8] 0.069 | [9] 0.049 | entinostat -0.032 | vorinostat -0.071 | citarinostat -0.062 | silmitasertib 0.072 | [10] 0.082 | [11] -0.037

(continued)

SMU1 (UniProt Q2TAY7)
inactive: bafetinib 0.066 | [1] 0.019 | nilotinib 0.004 | [2] -0.032 | dasatinib -0.039 | [3] 0.034 | [4] -0.077 | [5] -0.02 | tipifarnib -0.008 | mubritinib -0.017 | [6] 0.022 | [7] -0.054 | [8] 0.004 | [9] 0.047 | entinostat -0.026 | vorinostat -0.034 | citarinostat -0.016 | silmitasertib 0.049 | [10] 0.01 | [11] -0.023

SNX5 (UniProt Q9Y5X3)
inactive: bafetinib -0.154 | [1] 0.11 | nilotinib -0.078 | [2] 0.006 | dasatinib -0.169 | [3] -0.314 | [4] 0.05 | [5] 0.001 | tipifarnib -0.027 | mubritinib 0.082 | [6] -0.022 | [7] -0.275 | [9] -0.037 | entinostat 0.078 | vorinostat 0.108 | citarinostat 0.09 | silmitasertib -0.061 | [10] -0.006 | [11] -0.11
active: [8] -0.332

SLC9A3R1 (UniProt O14745)
inactive: bafetinib -0.041 | [1] -0.017 | nilotinib 0.027 | [2] 0.017 | dasatinib 0.014 | [3] -0.001 | [4] 0.024 | [5] 0.01 | tipifarnib -0.021 | mubritinib 0.024 | [6] -0.011 | [7] 0.018 | [8] 0.027 | [9] 0.055 | entinostat -0.046 | vorinostat -0.026 | citarinostat -0.005 | silmitasertib -0.052 | [10] -0.026 | [11] 0.054

SNX15 (UniProt Q9NRS6)
active: vorinostat 0.436
inactive: bafetinib 0.036 | [1] 0.154 | nilotinib -0.064 | [2] -0.17 | dasatinib 0.206 | [3] 0.002 | [4] -0.046 | [5] 0.086 | tipifarnib 0.067 | mubritinib -0.063 | [6] 0.106 | [7] -0.135 | [8] -0.048 | [9] -0.133 | entinostat 0.061 | citarinostat 0.113 | silmitasertib 0.276 | [11] -0.073

SNRPD2 (UniProt P62316)
inactive: bafetinib 0.002 | [1] -0.03 | nilotinib 0.039 | [2] 0.06 | dasatinib 0.144 | [3] 0.074 | [4] -0.104 | [5] -0.026 | tipifarnib 0.046 | mubritinib 0.016 | [6] 0.007 | [7] 0.006 | [8] 0.03 | [9] 0.03 | entinostat -0.051 | vorinostat -0.003 | citarinostat 0.004 | silmitasertib 0.053 | [10] 0.056 | [11] 0.049

SMYD3 (UniProt Q9H7B4)
inactive: bafetinib 0.08 | [1] -0.006 | nilotinib -0.074 | [2] -0.06 | dasatinib -0.034 | [3] 0.102 | [4] -0.053 | [5] -0.136 | tipifarnib -0.002 | mubritinib 0.105 | [6] -0.116 | [7] -0.158 | [8] -0.082 | [9] 0.024 | entinostat 0.164 | vorinostat 0.104 | silmitasertib 0.013 | [10] 0.085

SNX12 isoform 1 (UniProt Q9UMY4)
inactive: bafetinib -0.067 | [1] 0.042 | nilotinib -0.038 | [2] -0.016 | dasatinib -0.043 | [3] -0.191 | [4] 0.038 | [5] 0.008 | tipifarnib -0.015 | mubritinib -0.009 | [6] -0.022 | [9] 0.019 | entinostat 0.046 | vorinostat 0.035 | citarinostat 0.102 | silmitasertib 0.06 | [10] -0.081 | [11] -0.066
active: [7] -0.225 | [8] -0.22

SNRPD3 (UniProt P62318)
active: [10] 0.271
inactive: bafetinib 0.013 | [1] -0.077 | nilotinib 0.034 | [2] 0.077 | dasatinib 0.08 | [3] 0.107 | [4] -0.097 | [5] -0.06 | tipifarnib 0.024 | mubritinib 0.011 | [6] 0.034 | [7] -0.01 | [8] 0.025 | [9] 0.013 | entinostat -0.059 | vorinostat -0.067 | citarinostat -0.019 | silmitasertib 0.092 | [11] -0.055

SMARCAD1 isoform 2 (UniProt Q9H4L7)
inactive: bafetinib 0.067 | [1] 0.014 | nilotinib 0.049 | [2] -0.056 | dasatinib -0.131 | [3] -0.049 | [4] 0.088 | [5] 0.034 | tipifarnib -0.144 | mubritinib 0.241 | [6] -0.109 | [7] -0.043 | [8] -0.187 | [9] -0.072 | entinostat 0.057 | vorinostat 0.045 | citarinostat 0.037 | silmitasertib 0.03 | [10] -0.187 | [11] 0.088

SNW1 (UniProt Q13573)
inactive: bafetinib -0.049 | [1] -0.071 | nilotinib 0.004 | [2] 0.067 | dasatinib 0.027 | [3] 0.088 | [4] -0.055 | [5] -0.043 | tipifarnib 0.026 | mubritinib -0.006 | [6] 0.034 | [7] 0.019 | [8] 0.017 | [9] 0.02 | entinostat -0.056 | vorinostat -0.044 | citarinostat -0.019 | silmitasertib 0.062 | [10] 0.05 | [11] -0.05
